These are yes or no findings as the source states them, for the method shown. Binding seen in cells or lysates may run through a third protein. Some binding calls cover weakened binding; strength is not graded here.
What was measured:
[1] = target: T1, FOXA3 (forkhead box A3) (human (endogenous in HepG2)) (UniProt P55318); assay: co-IP; endogenous proteins in precleared HepG2 nuclear lysate in RIPA buffer; antibody or IgG 1 μg per approximately 500 μg total protein with Protein G-agarose at 4°C overnight; washed twice with RIPA; western blot with the same FOXA antibodies, all six combinations
T1 sequence: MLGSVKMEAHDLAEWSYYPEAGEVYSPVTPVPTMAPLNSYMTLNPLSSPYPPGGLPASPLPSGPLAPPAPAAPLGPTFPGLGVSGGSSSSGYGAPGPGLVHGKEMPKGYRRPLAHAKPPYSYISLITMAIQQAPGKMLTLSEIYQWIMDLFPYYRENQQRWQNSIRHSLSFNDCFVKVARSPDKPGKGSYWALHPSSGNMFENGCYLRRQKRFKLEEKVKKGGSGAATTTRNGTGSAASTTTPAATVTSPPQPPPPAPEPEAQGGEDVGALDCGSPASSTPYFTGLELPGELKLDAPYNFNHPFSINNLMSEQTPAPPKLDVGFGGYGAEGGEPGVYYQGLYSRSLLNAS

[2] = target: T2, FOXA2 (forkhead box A2) (human (endogenous in HepG2)) (UniProt Q9Y261); assay: as above
T2 sequence: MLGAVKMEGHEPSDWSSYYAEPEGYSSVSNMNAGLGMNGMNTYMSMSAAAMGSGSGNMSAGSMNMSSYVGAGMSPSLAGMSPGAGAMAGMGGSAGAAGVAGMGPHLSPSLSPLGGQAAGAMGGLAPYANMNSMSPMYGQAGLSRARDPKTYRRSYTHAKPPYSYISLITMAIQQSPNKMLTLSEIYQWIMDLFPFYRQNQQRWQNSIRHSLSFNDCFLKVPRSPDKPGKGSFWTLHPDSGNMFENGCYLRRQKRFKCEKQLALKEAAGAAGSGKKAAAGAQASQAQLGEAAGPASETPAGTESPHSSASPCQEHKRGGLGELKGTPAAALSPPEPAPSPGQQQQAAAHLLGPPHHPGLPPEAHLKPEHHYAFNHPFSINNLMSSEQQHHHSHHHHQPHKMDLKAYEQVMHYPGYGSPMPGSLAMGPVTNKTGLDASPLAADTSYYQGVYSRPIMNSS

B1: FOXA1 (forkhead box A1) (protein, UniProt P55317 1-472)
chain: MLGTVKMEGHETSDWNSYYADTQEAYSSVPVSNMNSGLGSMNSMNTYMTMNTMTTSGNMTPASFNMSYANPGLGAGLSPGAVAGMPGGSAGAMNSMTAAGVTAMGTALSPSGMGAMGAQQAASMNGLGPYAAAMNPCMSPMAYAPSNLGRSRAGGGGDAKTFKRSYPHAKPPYSYISLITMAIQQAPSKMLTLSEIYQWIMDLFPYYRQNQQRWQNSIRHSLSFNDCFVKVARSPDKPGKGSYWTLHPDSGNMFENGCYLRRQKRFKCEKQPGAGGGGGSGSGGSGAKGGPESRKDPSGASNPSADSPLHRGVHGKTGQLEGAPAPGPAASPQTLDHSGATATGGASELKTPASSTAPPISSGPGALASVPASHPAHGLAPHESQLHLKGDPHYSFNHPFSINNLMSSSEQQHKLDFKAYEQALQYSPYGSTLPASLPLGSASVTTRSPIEPSALEPAYYQGVYSRPVLNTS
binding [1]: no binding
binding [2]: binds

B2: FOXA3 (forkhead box A3) (protein, UniProt P55318 1-350)
chain: MLGSVKMEAHDLAEWSYYPEAGEVYSPVTPVPTMAPLNSYMTLNPLSSPYPPGGLPASPLPSGPLAPPAPAAPLGPTFPGLGVSGGSSSSGYGAPGPGLVHGKEMPKGYRRPLAHAKPPYSYISLITMAIQQAPGKMLTLSEIYQWIMDLFPYYRENQQRWQNSIRHSLSFNDCFVKVARSPDKPGKGSYWALHPSSGNMFENGCYLRRQKRFKLEEKVKKGGSGAATTTRNGTGSAASTTTPAATVTSPPQPPPPAPEPEAQGGEDVGALDCGSPASSTPYFTGLELPGELKLDAPYNFNHPFSINNLMSEQTPAPPKLDVGFGGYGAEGGEPGVYYQGLYSRSLLNAS
binding [2]: binds

From article PMC3091322
